# Some of the results follow.
# Experiments:
# Test in all cases: glycan array binding signal (z-score within array); higher = stronger binding
# Details in all cases: glycan notation: IUPAC condensed, linker removed
# [1] = biological target: Gal(b1-4)GlcNAc(b1-3)Gal(b1-4)GlcNAc(b1-2)[Gal(b1-4)GlcNAc(b1-3)Gal(b1-4)GlcNAc(b1-6)]Man(a1-6)[Gal(b1-4)GlcNAc(b1-3)Gal(b1-4)GlcNAc(b1-2)Man(a1-3)]Man(b1-4)GlcNAc(b1-4)GlcNAc
# Outline: (§1)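 Glycan array data came from 3228 arrays in the Consortium for Functional Glycomics database, and only arrays with an available protein sequence were kept. Glycan names were put into IUPAC-condensed notation, and columns mapping to the same glycan were averaged. The binding signal is a within-array Z-score, averaged across arrays of one protein sequence run at different concentrations or buffers and across linkers. A negative Z-score can be read as non-binding.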
# [2] = biological target: Gal(b1-4)GlcNAc(b1-3)Gal(b1-4)GlcNAc(b1-2)[Gal(b1-4)GlcNAc(b1-3)Gal(b1-4)GlcNAc(b1-6)]Man(a1-6)[Gal(b1-4)GlcNAc(b1-3)Gal(b1-4)GlcNAc(b1-2)Man(a1-3)]Man(b1-4)GlcNAc(b1-4)[Fuc(a1-6)]GlcNAc
# Outline: as §1
# [3] = biological target: Gal(b1-4)GlcNAc(b1-3)Gal(b1-4)GlcNAc(b1-3)Gal(b1-4)GlcNAc
# Outline: as §1
# [4] = biological target: Gal(b1-4)GlcNAc(b1-3)Gal(b1-4)GlcNAc(b1-3)Gal(b1-4)GlcNAc(b1-2)Man(a1-3)[Gal(b1-4)GlcNAc(b1-3)Gal(b1-4)GlcNAc(b1-3)Gal(b1-4)GlcNAc(b1-2)Man(a1-6)]Man(b1-4)GlcNAc(b1-4)GlcNAc
# Outline: as §1
# [5] = biological target: Gal(b1-4)GlcNAc(b1-3)Gal(b1-4)GlcNAc(b1-3)Gal(b1-4)GlcNAc(b1-2)Man(a1-3)[Gal(b1-4)GlcNAc(b1-3)Gal(b1-4)GlcNAc(b1-3)Gal(b1-4)GlcNAc(b1-2)Man(a1-6)]Man(b1-4)GlcNAc(b1-4)[Fuc(a1-6)]GlcNAc
# Outline: as §1
# [6] = biological target: Gal(b1-4)GlcNAc(b1-3)Gal(b1-4)GlcNAc(b1-3)Gal(b1-4)GlcNAc(b1-2)[Gal(b1-4)GlcNAc(b1-3)Gal(b1-4)GlcNAc(b1-3)Gal(b1-4)GlcNAc(b1-6)]Man(a1-6)[Gal(b1-4)GlcNAc(b1-3)Gal(b1-4)GlcNAc(b1-3)Gal(b1-4)GlcNAc(b1-2)Man(a1-3)]Man(b1-4)GlcNAc(b1-4)[Fuc(a1-6)]GlcNAc
# Outline: as §1
# [7] = biological target: Gal(b1-4)GlcNAc(b1-3)Gal(b1-4)GlcNAc(b1-3)Gal(b1-4)GlcNAc(b1-3)Gal(b1-4)GlcNAc(b1-2)Man(a1-3)[Gal(b1-4)GlcNAc(b1-3)Gal(b1-4)GlcNAc(b1-3)Gal(b1-4)GlcNAc(b1-3)Gal(b1-4)GlcNAc(b1-2)Man(a1-6)]Man(b1-4)GlcNAc(b1-4)GlcNAc
# Outline: as §1
# [8] = biological target: Gal(b1-4)GlcNAc(b1-3)Gal(b1-4)GlcNAc(b1-3)Gal(b1-4)GlcNAc(b1-3)Gal(b1-4)GlcNAc(b1-2)Man(a1-3)[Gal(b1-4)GlcNAc(b1-3)Gal(b1-4)GlcNAc(b1-3)Gal(b1-4)GlcNAc(b1-3)Gal(b1-4)GlcNAc(b1-2)Man(a1-6)]Man(b1-4)GlcNAc(b1-4)[Fuc(a1-6)]GlcNAc
# Outline: as §1
# [9] = biological target: Gal(b1-4)GlcNAc(b1-3)Gal(b1-4)GlcNAc(b1-3)Gal(b1-4)GlcNAc(b1-3)Gal(b1-4)GlcNAc(b1-2)[Gal(b1-4)GlcNAc(b1-3)Gal(b1-4)GlcNAc(b1-3)Gal(b1-4)GlcNAc(b1-3)Gal(b1-4)GlcNAc(b1-6)]Man(a1-6)[Gal(b1-4)GlcNAc(b1-3)Gal(b1-4)GlcNAc(b1-3)Gal(b1-4)GlcNAc(b1-3)Gal(b1-4)GlcNAc(b1-2)Man(a1-3)]Man(b1-4)GlcNAc(b1-4)[Fuc(a1-6)]GlcNAc
# Outline: as §1
# [10] = biological target: Gal(b1-4)GlcNAc(b1-3)Gal(b1-4)GlcNAc(b1-3)Gal(b1-4)GlcNAc(b1-3)Gal(b1-4)GlcNAc(b1-3)Gal(b1-4)GlcNAc(b1-2)Man(a1-3)[Gal(b1-4)GlcNAc(b1-3)Gal(b1-4)GlcNAc(b1-3)Gal(b1-4)GlcNAc(b1-3)Gal(b1-4)GlcNAc(b1-3)Gal(b1-4)GlcNAc(b1-2)Man(a1-6)]Man(b1-4)GlcNAc(b1-4)GlcNAc
# Outline: as §1
# [11] = biological target: Gal(b1-4)GlcNAc(b1-3)Gal(b1-4)GlcNAc(b1-3)Gal(b1-4)GlcNAc(b1-3)Gal(b1-4)GlcNAc(b1-3)Gal(b1-4)GlcNAc(b1-2)Man(a1-3)[Gal(b1-4)GlcNAc(b1-3)Gal(b1-4)GlcNAc(b1-3)Gal(b1-4)GlcNAc(b1-3)Gal(b1-4)GlcNAc(b1-3)Gal(b1-4)GlcNAc(b1-2)Man(a1-6)]Man(b1-4)GlcNAc(b1-4)[Fuc(a1-6)]GlcNAc
# Outline: as §1
# [12] = biological target: Gal(b1-4)GlcNAc(b1-3)Gal(b1-4)GlcNAc(b1-3)Gal(b1-4)GlcNAc(b1-3)Gal(b1-4)GlcNAc(b1-3)Gal(b1-4)GlcNAc(b1-2)[Gal(b1-4)GlcNAc(b1-3)Gal(b1-4)GlcNAc(b1-3)Gal(b1-4)GlcNAc(b1-3)Gal(b1-4)GlcNAc(b1-3)Gal(b1-4)GlcNAc(b1-6)]Man(a1-6)[Gal(b1-4)GlcNAc(b1-3)Gal(b1-4)GlcNAc(b1-3)Gal(b1-4)GlcNAc(b1-3)Gal(b1-4)GlcNAc(b1-3)Gal(b1-4)GlcNAc(b1-2)Man(a1-3)]Man(b1-4)GlcNAc(b1-4)[Fuc(a1-6)]GlcNAc
# Outline: as §1
# [13] = biological target: Gal(b1-4)GlcNAc(b1-3)Gal(b1-4)GlcNAc(b1-3)Gal(b1-4)GlcNAc(b1-3)Gal(b1-4)GlcNAc(b1-3)Gal(b1-4)GlcNAc(b1-3)Gal(b1-4)GlcNAc(b1-2)Man(a1-3)[Gal(b1-4)GlcNAc(b1-3)Gal(b1-4)GlcNAc(b1-3)Gal(b1-4)GlcNAc(b1-3)Gal(b1-4)GlcNAc(b1-3)Gal(b1-4)GlcNAc(b1-3)Gal(b1-4)GlcNAc(b1-2)Man(a1-6)]Man(b1-4)GlcNAc(b1-4)GlcNAc
# Outline: as §1
# [14] = biological target: Gal(b1-4)GlcNAc(b1-3)Gal(b1-4)GlcNAc(b1-3)GalNAc
# Outline: as §1
# [15] = biological target: Gal(b1-4)GlcNAc(b1-3)Gal(b1-4)GlcNAc(b1-3)[Gal(b1-4)GlcNAc(b1-3)Gal(b1-4)GlcNAc(b1-6)]GalNAc
# Outline: as §1
# [16] = biological target: Gal(b1-4)GlcNAc(b1-3)Gal(b1-4)GlcNAc(b1-6)[Gal(b1-3)]GalNAc
# Outline: as §1
# [17] = biological target: Gal(b1-4)GlcNAc(b1-3)Gal(b1-4)[Fuc(a1-3)]GlcNAc(b1-3)Gal(b1-4)[Fuc(a1-3)]GlcNAc
# Outline: as §1
# [18] = biological target: Gal(b1-4)GlcNAc(b1-3)GalNAc
# Outline: as §1
# [19] = biological target: Gal(b1-4)GlcNAc(b1-3)[Fuc(a1-3)GlcNAc(b1-6)]Gal(b1-4)Glc
# Outline: as §1
# [20] = biological target: Gal(b1-4)GlcNAc(b1-3)[Gal(b1-4)GlcNAc(b1-6)]Gal(b1-4)GlcNAc
# Outline: as §1
# [21] = biological target: Gal(b1-4)GlcNAc(b1-3)[GlcNAc(b1-6)]Gal(b1-4)GlcNAc
# Outline: as §1
# [22] = biological target: Gal(b1-4)GlcNAc(b1-6)Gal(b1-4)GlcNAc
# Outline: as §1
# [23] = biological target: Gal(b1-4)GlcNAc(b1-6)GalNAc
# Outline: as §1
# [24] = biological target: Gal(b1-4)GlcNAc(b1-6)[Gal(b1-3)]GalNAc
# Outline: as §1
# [25] = biological target: Gal(b1-4)GlcNAc(b1-6)[Gal(b1-4)GlcNAc(b1-3)]GalNAc
# Outline: as §1
# Gal(b1-4)GlcNAc6P = biological target: Gal(b1-4)GlcNAc6P
# Outline: as §1
# Gal(b1-6)Gal = biological target: Gal(b1-6)Gal
# Outline: as §1
# Gal3S(b1-3)GalNAc = biological target: Gal3S(b1-3)GalNAc
# Outline: as §1
# Gal3S(b1-3)GlcNAc = biological target: Gal3S(b1-3)GlcNAc
# Outline: as §1
# [26] = biological target: Gal3S(b1-3)[Fuc(a1-4)]GlcNAc
# Outline: as §1
# Gal3S(b1-4)Glc = biological target: Gal3S(b1-4)Glc
# Outline: as §1
# Gal3S(b1-4)Glc6S = biological target: Gal3S(b1-4)Glc6S
# Outline: as §1
# Gal3S(b1-4)GlcNAc = biological target: Gal3S(b1-4)GlcNAc
# Outline: as §1
# [27] = biological target: Gal3S(b1-4)[Fuc(a1-3)]Glc6S
# Outline: as §1
# [28] = biological target: Gal3S(b1-4)[Fuc(a1-3)]GlcNAc
# Outline: as §1
# [29] = biological target: Gal3S(b1-4)[Fuc(a1-3)]GlcNAc6S
# Outline: as §1
# Gal3S4S(b1-4)GlcNAc = biological target: Gal3S4S(b1-4)GlcNAc
# Outline: as §1
# Gal3S6S(b1-4)GlcNAc = biological target: Gal3S6S(b1-4)GlcNAc
# Outline: as §1
# Gal3S6S(b1-4)GlcNAc6S = biological target: Gal3S6S(b1-4)GlcNAc6S
# Outline: as §1
# Gal4S(b1-4)GlcNAc = biological target: Gal4S(b1-4)GlcNAc
# Outline: as §1
# Gal4S6S(b1-4)GlcNAc = biological target: Gal4S6S(b1-4)GlcNAc
# Outline: as §1
# Gal6P(b1-4)GlcNAc = biological target: Gal6P(b1-4)GlcNAc
# Outline: as §1
# Gal6S(b1-3)GlcNAc = biological target: Gal6S(b1-3)GlcNAc
# Outline: as §1
# Gal6S(b1-3)GlcNAc6S = biological target: Gal6S(b1-3)GlcNAc6S
# Outline: as §1
# Gal6S(b1-4)Glc = biological target: Gal6S(b1-4)Glc
# Outline: as §1
binder,measurement,setting,value
EULS2 M1 (Oryza sativa) (protein) MVYCRANPNYAMTARNGAVVLAPANPKDEYQHWIKDMRWSTSIKDEEGYPAFALVNKATGQAIKHSLGQSHPVRLVPYNPEVMDESVLWTESRDVGNGFRCIRMVNNIYLNFDAFHGDKYHGGVRDGTDIVLWKLCEGDNQRWKIQPYYILEQKLISEEDLNSAVDHHHHHH,glycan array binding signal (z-score),[1],1.89
same,glycan array binding signal (z-score),[2],-0.165
same,glycan array binding signal (z-score),[3],-0.376
same,glycan array binding signal (z-score),[4],-0.453
same,glycan array binding signal (z-score),[5],-0.45
same,glycan array binding signal (z-score),[6],-0.132
same,glycan array binding signal (z-score),[7],-0.1
same,glycan array binding signal (z-score),[8],-0.311
same,glycan array binding signal (z-score),[9],0.636
same,glycan array binding signal (z-score),[10],0.79
same,glycan array binding signal (z-score),[11],-0.042
same,glycan array binding signal (z-score),[12],0.356
same,glycan array binding signal (z-score),[13],1.27
same,glycan array binding signal (z-score),[14],0.049
same,glycan array binding signal (z-score),[15],0.287
same,glycan array binding signal (z-score),[16],-0.652
same,glycan array binding signal (z-score),[17],0.444
same,glycan array binding signal (z-score),[18],-0.156
same,glycan array binding signal (z-score),[19],-0.644
same,glycan array binding signal (z-score),[20],-2.68
same,glycan array binding signal (z-score),[21],-0.319
same,glycan array binding signal (z-score),[22],-0.514
same,glycan array binding signal (z-score),[23],0.271
same,glycan array binding signal (z-score),[24],-0.38
same,glycan array binding signal (z-score),[25],-0.195
same,glycan array binding signal (z-score),Gal(b1-4)GlcNAc6P,-0.582
same,glycan array binding signal (z-score),Gal(b1-6)Gal,-0.634
same,glycan array binding signal (z-score),Gal3S(b1-3)GalNAc,-0.716
same,glycan array binding signal (z-score),Gal3S(b1-3)GlcNAc,-0.552
same,glycan array binding signal (z-score),[26],-0.905
same,glycan array binding signal (z-score),Gal3S(b1-4)Glc,2.18
same,glycan array binding signal (z-score),Gal3S(b1-4)Glc6S,2.56
same,glycan array binding signal (z-score),Gal3S(b1-4)GlcNAc,0.284
same,glycan array binding signal (z-score),[27],-0.12
same,glycan array binding signal (z-score),[28],-0.159
same,glycan array binding signal (z-score),[29],1.12
same,glycan array binding signal (z-score),Gal3S4S(b1-4)GlcNAc,0.432
same,glycan array binding signal (z-score),Gal3S6S(b1-4)GlcNAc,-2.07
same,glycan array binding signal (z-score),Gal3S6S(b1-4)GlcNAc6S,0.355
same,glycan array binding signal (z-score),Gal4S(b1-4)GlcNAc,-0.281
same,glycan array binding signal (z-score),Gal4S6S(b1-4)GlcNAc,0.177
same,glycan array binding signal (z-score),Gal6P(b1-4)GlcNAc,-0.322
same,glycan array binding signal (z-score),Gal6S(b1-3)GlcNAc,-0.276
same,glycan array binding signal (z-score),Gal6S(b1-3)GlcNAc6S,10.9
same,glycan array binding signal (z-score),Gal6S(b1-4)Glc,-0.316

# Another view of some results above:
binder	measurement	setting	value
EULS2 M1 (Oryza sativa) (protein) MVYCRANPNYAMTARNGAVVLAPANPKDEYQHWIKDMRWSTSIKDEEGYPAFALVNKATGQAIKHSLGQSHPVRLVPYNPEVMDESVLWTESRDVGNGFRCIRMVNNIYLNFDAFHGDKYHGGVRDGTDIVLWKLCEGDNQRWKIQPYYILEQKLISEEDLNSAVDHHHHHH	glycan array binding signal (z-score)	[18]	-0.156
same	glycan array binding signal (z-score)	[19]	-0.644
same	glycan array binding signal (z-score)	[26]	-0.905
same	glycan array binding signal (z-score)	Gal3S(b1-4)Glc	2.18

# From the supplement of paper PMC8728848
